Experimental data reported in publication PMC13078783.
Results are given in words; binding and its absence hold for the method and conditions named. Some binding calls cover weakened binding; strength is not graded here.

Sequences of proteins named here, by UniProt entry; tags and fusion partners are left off.
UniProt P56536: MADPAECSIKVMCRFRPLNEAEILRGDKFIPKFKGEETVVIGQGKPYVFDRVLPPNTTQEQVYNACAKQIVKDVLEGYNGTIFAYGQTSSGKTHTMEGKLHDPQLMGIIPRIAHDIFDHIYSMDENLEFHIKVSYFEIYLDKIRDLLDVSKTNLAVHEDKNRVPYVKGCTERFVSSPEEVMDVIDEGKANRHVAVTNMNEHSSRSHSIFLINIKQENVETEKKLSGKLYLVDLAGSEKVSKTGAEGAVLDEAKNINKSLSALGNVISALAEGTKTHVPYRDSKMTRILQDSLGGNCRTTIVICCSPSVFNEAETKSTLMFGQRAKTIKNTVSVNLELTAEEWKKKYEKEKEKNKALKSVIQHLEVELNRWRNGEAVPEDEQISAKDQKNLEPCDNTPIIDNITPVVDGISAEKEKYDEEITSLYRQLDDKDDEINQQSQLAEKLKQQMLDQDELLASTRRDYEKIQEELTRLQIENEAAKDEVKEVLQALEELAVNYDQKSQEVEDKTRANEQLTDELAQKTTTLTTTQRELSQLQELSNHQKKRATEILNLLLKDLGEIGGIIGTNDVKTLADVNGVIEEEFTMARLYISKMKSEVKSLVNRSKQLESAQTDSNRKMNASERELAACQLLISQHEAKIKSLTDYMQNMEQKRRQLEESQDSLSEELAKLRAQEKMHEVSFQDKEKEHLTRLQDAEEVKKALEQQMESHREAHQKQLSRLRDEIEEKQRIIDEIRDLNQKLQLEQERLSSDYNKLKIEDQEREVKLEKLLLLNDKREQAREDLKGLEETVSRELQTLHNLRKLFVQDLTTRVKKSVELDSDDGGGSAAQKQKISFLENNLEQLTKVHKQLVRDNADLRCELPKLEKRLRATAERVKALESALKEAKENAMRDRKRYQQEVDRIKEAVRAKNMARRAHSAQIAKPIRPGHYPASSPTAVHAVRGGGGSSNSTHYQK

Target: KIF5C (wild-type kinesin heavy chain) (UniProt P56536)
Test: SEC; His6-KIF5C constructs and untagged KLC1 constructs co-expressed in E. coli, His-Trap, then Superose 6 10/300 in 20 mM Hepes pH 7.4, 150 mM NaCl, 1 mM MgCl2, 0.1 mM ADP, 0.5 mM TCEP; fractions on SDS-PAGE

- binding: binds
Substance: KIF5C (wild-type kinesin heavy chain) (from UniProt P56536 1-955)
